The target of assay [1] is T1, ITFG1-Myc (full-length ITFG1 with a Myc tag at the C-terminal) (human) (UniProt Q8TB96).
T1 sequence: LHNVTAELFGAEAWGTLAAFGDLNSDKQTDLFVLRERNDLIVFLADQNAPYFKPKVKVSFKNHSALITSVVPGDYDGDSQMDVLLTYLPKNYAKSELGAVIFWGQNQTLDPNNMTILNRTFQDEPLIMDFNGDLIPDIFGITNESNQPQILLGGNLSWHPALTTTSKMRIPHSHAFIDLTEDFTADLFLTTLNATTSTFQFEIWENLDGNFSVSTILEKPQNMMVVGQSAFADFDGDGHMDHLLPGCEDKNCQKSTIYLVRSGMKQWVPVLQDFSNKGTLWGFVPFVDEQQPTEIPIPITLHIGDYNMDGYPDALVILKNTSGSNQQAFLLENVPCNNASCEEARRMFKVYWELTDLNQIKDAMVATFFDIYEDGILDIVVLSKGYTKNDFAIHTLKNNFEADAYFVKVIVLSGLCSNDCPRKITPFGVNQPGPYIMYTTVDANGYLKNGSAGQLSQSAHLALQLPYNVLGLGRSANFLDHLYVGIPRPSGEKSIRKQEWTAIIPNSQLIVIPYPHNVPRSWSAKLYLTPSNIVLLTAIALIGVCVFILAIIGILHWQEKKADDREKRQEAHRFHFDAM
Put plainly: affinity purification with mass spectrometry.

Amino acid sequences for entries named in this document (tags omitted).
UniProt Q9Y265: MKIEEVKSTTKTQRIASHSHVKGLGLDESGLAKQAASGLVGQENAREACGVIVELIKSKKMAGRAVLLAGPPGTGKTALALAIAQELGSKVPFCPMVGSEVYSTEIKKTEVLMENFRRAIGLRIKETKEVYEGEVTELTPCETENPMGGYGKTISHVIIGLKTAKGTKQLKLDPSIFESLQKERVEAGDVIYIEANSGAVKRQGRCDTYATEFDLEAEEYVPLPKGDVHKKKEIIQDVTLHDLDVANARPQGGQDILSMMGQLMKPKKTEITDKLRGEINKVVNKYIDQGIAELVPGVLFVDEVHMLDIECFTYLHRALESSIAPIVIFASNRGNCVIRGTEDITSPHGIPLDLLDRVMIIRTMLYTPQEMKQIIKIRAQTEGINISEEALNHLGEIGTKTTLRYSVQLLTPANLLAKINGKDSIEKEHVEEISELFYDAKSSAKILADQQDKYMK
UniProt P15531: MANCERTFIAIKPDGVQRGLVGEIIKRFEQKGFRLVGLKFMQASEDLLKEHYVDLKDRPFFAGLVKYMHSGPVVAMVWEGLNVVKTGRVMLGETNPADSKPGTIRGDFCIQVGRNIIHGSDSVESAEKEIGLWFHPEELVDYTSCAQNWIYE

The target of assay [2] is T1, ITFG1-Myc (full-length ITFG1 with a Myc tag at the C-terminal) (human). Put plainly: affinity purification with mass spectrometry. This is another data set of the same source.

This note sets out measurements from paper doi:10.1101/2023.02.08.527750.

Where two headings read alike, the source gives them in different places. No constants are given. Whether binding was seen depends on the method and setting. In cells and extracts the contact can be indirect. A yes stands for co-enrichment or nearness to the bait. Other partners may have been found. Tags and fused reporters may be left off the sequences shown.

For the molecule “RUVBL1 (endogenous) (from UniProt Q9Y265 1-456)”, the binding result in assay [1] is “binds”.

With “NME1 (endogenous) (from UniProt P15531 1-152)”, the binding result in assay [1] was “binds”.

B1: ATP9A (endogenous) (protein, UniProt O75110 1-1047)
chain: MTDNIPLQPVRQKKRMDSRPRAGCCEWLRCCGGGEARPRTVWLGHPEKRDQRYPRNVINNQKYNFFTFLPGVLFNQFKYFFNLYFLLLACSQFVPEMRLGALYTYWVPLGFVLAVTVIREAVEEIRCYVRDKEVNSQVYSRLTARGTVKVKSSNIQVGDLIIVEKNQRVPADMIFLRTSEKNGSCFLRTDQLDGETDWKLRLPVACTQRLPTAADLLQIRSYVYAEEPNIDIHNFVGTFTREDSDPPISESLSIENTLWAGTVVASGTVVGVVLYTGRELRSVMNTSNPRSKIGLFDLEVNCLTKILFGALVVVSLVMVALQHFAGRWYLQIIRFLLLFSNIIPISLRVNLDMGKIVYSWVIRRDSKIPGTVVRSSTIPEQLGRISYLLTDKTGTLTQNEMIFKRLHLGTVAYGLDSMDEVQSHIFSIYTQQSQDPPAQKGPTLTTKVRRTMSSRVHEAVKAIALCHNVTPVYESNGVTDQAEAEKQYEDSCRVYQASSPDEVALVQWTESVGLTLVGRDQSSMQLRTPGDQILNFTILQIFPFTYESKRMGIIVRDESTGEITFYMKGADVVMAGIVQYNDWLEEECGNMAREGLRVLVVAKKSLAEEQYQDFEARYVQAKLSVHDRSLKVATVIESLEMEMELLCLTGVEDQLQADVRPTLETLRNAGIKVWMLTGDKLETATCTAKNAHLVTRNQDIHVFRLVTNRGEAHLELNAFRRKHDCALVISGDSLEVCLKYYEYEFMELACQCPAVVCCRCAPTQKAQIVRLLQERTGKLTCAVGDGGNDVSMIQESDCGVGVEGKEGKQASLAADFSITQFKHLGRLLMVHGRNSYKRSAALSQFVIHRSLCISTMQAVFSSVFYFASVPLYQGFLIIGYSTIYTMFPVFSLVLDKDVKSEVAMLYPELYKDLLKGRPLSYKTFLIWVLISIYQGSTIMYGALLLFESEFVHIVAISFTSLILTELLMVALTIQTWHWLMTVAELLSLACYIASLVFLHEFIDVYFIATLSFLWKVSVITLVSCLPLYVLKYLRRRFSPPSYSKLTS
For the molecule B1, the binding result in assay [2] is given as “binds”.

B2: NME4 (endogenous) (protein, UniProt O00746 29-187)
chain: GSGGPSWTRERTLVAVKPDGVQRRLVGDVIQRFERRGFTLVGMKMLQAPESVLAEHYQDLRRKPFYPALIRYMSSGPVVAMVWEGYNVVRASRAMIGHTDSAEAAPGTIRGDFSVHISRNVIHASDSVEGAQREIQLWFQSSELVSWADGGQHSSIHPA
Turning to B2, the binding entry in assay [2] is “binds”.
